Source: patent US20260265280A1, “Prevention/Treatment of Ischemic Reperfusion Injury” (Rev Therapeutics, priority 2023, published 2026)
Some entries share one result that the patent states for a list of compounds.

Test: In vivo rat pharmacokinetic studies (cleavage of compounds into compound Z)
Conditions: 2 hr post-dosing

## O=P([O-])([O-])OP(=O)([O-])OC1CCC(Nc2ncc3nc(Nc4c(F)cc(F)cc4F)n([C@H]4CCOC4)c3n2)CC1.[Na+].[Na+].[Na+] (stereo partly drawn) [Compound Q9, [Disodiooxyphosphoryloxy-[4-[[9-[(3S)-tetrahydrofuran-3-yl]-8-(2,4,6-trifluoroanilino)purin-2-yl]amino]cyclohexoxy]phosphoryl]oxysodium]
  cleavage at 2 hr: above 90%
